# In PubChem BioAssay AID540276 (National Center for Advancing Translational Sciences (NCATS), 2011):
# Out of some 300,000 compounds screened, about 5,400 (1.8%) were called active. This list was built around the results that the source calls inconclusive (neither active nor inactive); the mix of calls is not that of the screen. The call rests on the fitted dose curve; tested in HEK293 cells. Where the call is inconclusive, the potency comes from a doubtful curve fit.
# Test: qHTS for inhibitors of binding or entry into cells for Marburg Virus
# Settings: Marburg virus pseudotyped entry inhibition, cell reporter; series mostly up to 37.8 µM
# Potency means the concentration at half of the fitted maximal effect.
row,Structure (SMILES),Potency
1,CCc1ccc(CNc2ccc3c(c2)ncn3C(C)(C)C)cc1,active: 10 µM
2,Cc1ccc(-c2nc3ncccn3c2Nc2ccc3c(c2)OCCO3)cc1,inactive
3,Cc1cn(C(=O)c2ccccc2)c(=S)n1-c1ccc(Br)cc1,"inconclusive: 0.92 µM [inhibitor, full curve, poor fit]"
4,COc1ccc(-c2csc(NC(=O)C3=COCCO3)n2)c(OC)c1,"inconclusive: 7.08 µM [activator, partial curve, poor fit]"
5,COc1ccc(CC(=O)Nc2c(C(N)=O)oc3ccccc23)cc1OC,inactive
6,Cc1ccc(S(=O)(=O)N(CC(=O)Nc2ccc(Cl)cc2Cl)c2ccccc2C)cc1,"inconclusive: 11.2 µM [inhibitor, single point]"
7,COc1ccc(NC(=O)Cc2cccc(F)c2)cc1S(=O)(=O)Nc1ccccc1Cl,"inconclusive: 35.5 µM [inhibitor, partial curve, poor fit]"
8,COc1ccc(CN2C(=O)CN(C3CCCCCC3)C(=O)C2c2ccc(F)cc2)cc1 (centres undefined),inactive
9,Cc1ccc(-c2noc(-c3ccccc3C(=O)NCc3ccco3)n2)cc1,"inconclusive: 10 µM [inhibitor, partial curve, poor fit]"
10,COc1ccc(NC(=S)N2CCN(C(c3ccccc3)c3ccccc3)CC2)cc1OC,"inconclusive: 1.58 µM [activator, partial curve, poor fit]"
11,Cc1ccccc1NC(=O)CSc1nc2ccccc2c2nc(CCn3cncc3C)nn12,"inconclusive: 35.5 µM [inhibitor, single point]"
12,c1coc(CN2CCN(C(c3cccs3)c3nnnn3C3CCCC3)CC2)c1 (centres undefined),"inconclusive: 7.08 µM [inhibitor, partial curve, poor fit]"
13,CCn1c(C(=O)N2CCC(C(=O)NCCc3ccc(C)cc3)CC2)cc2sccc21,inactive
14,CCOc1ccc(CCNC(=O)C2CCN(S(=O)(=O)c3ccc(C)cc3)CC2)cc1OCC,"inconclusive: 3.16 µM [inhibitor, partial curve, poor fit]"
15,Cc1ccc(C)c(NC(=O)C(Sc2nnc(-c3cccs3)o2)c2ccccc2)c1 (centres undefined),"inconclusive: 11.2 µM [inhibitor, partial curve, poor fit]"
16,CC1CCN(CCOCCOc2ccccc2-c2ccccc2)CC1,"inconclusive: 5.17 µM [inhibitor, partial curve, poor fit]"
17,CCCc1cc(-n2ccnc2C)n2c(nc3ccccc32)c1C#N,inactive
18,CC(=O)Nc1cccc(OCc2cccc([N+](=O)[O-])c2)c1,inactive
19,CCNc1ccc(C(=O)O)cc1N,"inconclusive: 16.4 µM [inhibitor, partial curve, poor fit]"

# Three compounds already listed, arranged by length of the SMILES, low to high.
row,Structure (SMILES),Potency
1,CCc1ccc(CNc2ccc3c(c2)ncn3C(C)(C)C)cc1,active: 10 µM
4,COc1ccc(-c2csc(NC(=O)C3=COCCO3)n2)c(OC)c1,"inconclusive: 7.08 µM [activator, partial curve, poor fit]"
6,Cc1ccc(S(=O)(=O)N(CC(=O)Nc2ccc(Cl)cc2Cl)c2ccccc2C)cc1,"inconclusive: 11.2 µM [inhibitor, single point]"
